Laboratory results published in the supplement of paper PMC4840960.
± gives the standard deviation of the averaged measurements. The list shows a part of the results. Plates or batches differ in their baseline, so values are only roughly comparable.

Test system: E18 rat cortical neuron-glia co-culture
Experiment: total nuclei (DAPI) / Olig2+ nuclei (ratio); higher = more depletion of OPC/OL lineage cells
Details: treatment time: 8 days (DIV5-DIV13)

| SMILES | total nuclei (1 µM) | total nuclei (5 µM) |
| --- | --- | --- |
| COc1cc([C@@H]2c3cc4c(cc3[C@H](O)[C@H]3COC(=O)[C@H]23)OCO4)cc(OC)c1OC [Podophyllotoxin] | 3.95 | 3.9 |
| NC1=NC(=O)C(c2ccccc2)O1 (stereo not drawn) [Pemoline] | 3.35 | 4 |
| O=C(O)C(Cl)Cl [Dichloroacetic Acid] | 2.57 | 2.7 |
| C[N+]1(CCC(C(N)=O)(c2ccccc2)c2ccccc2)CCCCC1 [Fenpiverinium] | 4.15 | 23.1 |
| C=CCN1CC[C@]23c4c5ccc(O)c4O[C@H]2C(=O)CC[C@@]3(O)[C@H]1C5 [Naloxone] | 2.87 | 2.8 |
| O=P1(N(CCCl)CCCl)NCCCO1 (stereo not drawn) [Cyclophosphamide] | 2.8 | 2.9 |
| CN1C(=O)CN=C(c2ccccc2)c2cc(Cl)ccc21 [Diazepam] | 2.79 | 3 |
| C[C@]12CC[C@H]3[C@@H](CCC4=CC(=O)CC[C@@H]43)[C@@H]1CC[C@@H]2O [Nandrolone] | 5.1 | 4.9 |
| CNCC(O)c1ccc(O)cc1 (stereo not drawn) [Synephrine] | 2.96 | 2.8 |
| CN(C)C(=O)Oc1ccc[n+](C)c1 [Pyridostigmine Bromide] |  | 2.9 |
| Oc1ccc2c3c1O[C@H]1[C@@H](O)CC[C@@]4(O)[C@@H](C2)N(CC2CCC2)CC[C@]314 [Nalbufina] | 5.06 | 5.5 |
| CCC(C(N)=O)N1CCCC1=O (stereo not drawn) [Etiracetam] | 4.92 | 4.2 |
| COc1cc(N)c(Cl)cc1C(=O)NC1CN2CCC1CC2 (stereo not drawn) [Zacopride] | 3.29 | 3.4 |
| CN1[C@@H]2CC[C@H]1C[C@@H](OC(=O)[C@H](CO)c1ccccc1)C2 [Hyoscyamine] | 4.04 | 3.7 |
| Oc1cc2c(cc1O)[C@H]1c3ccccc3CN[C@@H]1CC2 (racemic) [Dihydrexidine] | 2.72 | 6.5 |
| C[C@]12CCC(=O)C[C@@H]1CC[C@@H]1[C@@H]2CC[C@@]2(C)[C@H]1CC[C@]2(C)O [Mestanolone] | 3.47 | 3.9 |
| Oc1cc(Cl)ccc1Oc1ccc(Cl)cc1Cl [Triclosan] | 4.76 | > 40 |
| c1ccc2c(c1)Nc1ccccc1S2 [Phenothiazine] | 2.82 | 2.6 |
| CN1CC[C@@H](c2ccc(F)cc2)[C@H](COc2ccc3c(c2)OCO3)C1 [N-Methylparoxetine] | 4.22 | 7 |
| CC(C)(O)[C@@H]1[C@H]2OC(=O)[C@@H]1[C@]1(O)C[C@H]3O[C@]34C(=O)O[C@H]2[C@]14C [Picrotin] | 3.3 | 3.8 |
| CNC1CC(c2ccc(Cl)c(Cl)c2)c2ccccc21 (stereo not drawn) [Indatraline] | 5.78 | > 40 |
| C[C@]12CC[C@H]3[C@@H](CCC4=CC(=O)CC[C@@]43C)[C@@H]1CC[C@@H]2O [Testosterone] | 3.17 ± 0.81 | 2.4 |

Of the compounds above, 2 have an aryl methoxy group:

| SMILES | total nuclei (1 µM) | total nuclei (5 µM) |
| --- | --- | --- |
| COc1cc([C@@H]2c3cc4c(cc3[C@H](O)[C@H]3COC(=O)[C@H]23)OCO4)cc(OC)c1OC [Podophyllotoxin] | 3.95 | 3.9 |
| COc1cc(N)c(Cl)cc1C(=O)NC1CN2CCC1CC2 (stereo not drawn) [Zacopride] | 3.29 | 3.4 |
